These are yes or no findings as the source states them, for the method shown. Binding seen in cells or lysates may run through a third protein. Some binding calls cover weakened binding; strength is not graded here. Blank lines part the entries; values can stand above or below the substance they belong to.
Experiments:
[1] = target: RAB10 (human (endogenous in primary human hepatocytes)) (UniProt P61026); assay: co-IP; endogenous ABCB4 or RAB10 immunoprecipitated from primary human hepatocyte lysates with specific antibodies; control with unspecific antibodies; immunoblot
[2] = target: RAB10-GFP (pEGFP-RAB10-WT) (human) (UniProt P61026); assay: co-IP; HEK cells co-expressing RAB10-GFP and ABCB4; GFP or ABCB4 immunoprecipitated with specific antibodies; control with unspecific antibodies; immunoblot
[3] = target: ABCB4 (ATP-binding cassette subfamily B member 4) (human (endogenous in primary human hepatocytes)) (UniProt P21439); assay: co-IP; endogenous ABCB4 or RAB10 immunoprecipitated from primary human hepatocyte lysates with specific antibodies; control with unspecific antibodies; immunoblot
[4] = target: ABCB4 (pcDNA3-ABCB4) (human) (UniProt P21439); assay: co-IP; HEK cells co-expressing RAB10-GFP and ABCB4; GFP or ABCB4 immunoprecipitated with specific antibodies; control with unspecific antibodies; immunoblot

Protein sequences, listed by entry. Tags and fused reporters are not part of them.
UniProt P61026: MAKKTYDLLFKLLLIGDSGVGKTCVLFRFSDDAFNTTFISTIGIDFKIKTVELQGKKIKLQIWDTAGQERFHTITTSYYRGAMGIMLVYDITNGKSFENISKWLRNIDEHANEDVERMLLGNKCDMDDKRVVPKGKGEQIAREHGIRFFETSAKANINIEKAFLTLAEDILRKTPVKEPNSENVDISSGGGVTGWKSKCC
UniProt P21439: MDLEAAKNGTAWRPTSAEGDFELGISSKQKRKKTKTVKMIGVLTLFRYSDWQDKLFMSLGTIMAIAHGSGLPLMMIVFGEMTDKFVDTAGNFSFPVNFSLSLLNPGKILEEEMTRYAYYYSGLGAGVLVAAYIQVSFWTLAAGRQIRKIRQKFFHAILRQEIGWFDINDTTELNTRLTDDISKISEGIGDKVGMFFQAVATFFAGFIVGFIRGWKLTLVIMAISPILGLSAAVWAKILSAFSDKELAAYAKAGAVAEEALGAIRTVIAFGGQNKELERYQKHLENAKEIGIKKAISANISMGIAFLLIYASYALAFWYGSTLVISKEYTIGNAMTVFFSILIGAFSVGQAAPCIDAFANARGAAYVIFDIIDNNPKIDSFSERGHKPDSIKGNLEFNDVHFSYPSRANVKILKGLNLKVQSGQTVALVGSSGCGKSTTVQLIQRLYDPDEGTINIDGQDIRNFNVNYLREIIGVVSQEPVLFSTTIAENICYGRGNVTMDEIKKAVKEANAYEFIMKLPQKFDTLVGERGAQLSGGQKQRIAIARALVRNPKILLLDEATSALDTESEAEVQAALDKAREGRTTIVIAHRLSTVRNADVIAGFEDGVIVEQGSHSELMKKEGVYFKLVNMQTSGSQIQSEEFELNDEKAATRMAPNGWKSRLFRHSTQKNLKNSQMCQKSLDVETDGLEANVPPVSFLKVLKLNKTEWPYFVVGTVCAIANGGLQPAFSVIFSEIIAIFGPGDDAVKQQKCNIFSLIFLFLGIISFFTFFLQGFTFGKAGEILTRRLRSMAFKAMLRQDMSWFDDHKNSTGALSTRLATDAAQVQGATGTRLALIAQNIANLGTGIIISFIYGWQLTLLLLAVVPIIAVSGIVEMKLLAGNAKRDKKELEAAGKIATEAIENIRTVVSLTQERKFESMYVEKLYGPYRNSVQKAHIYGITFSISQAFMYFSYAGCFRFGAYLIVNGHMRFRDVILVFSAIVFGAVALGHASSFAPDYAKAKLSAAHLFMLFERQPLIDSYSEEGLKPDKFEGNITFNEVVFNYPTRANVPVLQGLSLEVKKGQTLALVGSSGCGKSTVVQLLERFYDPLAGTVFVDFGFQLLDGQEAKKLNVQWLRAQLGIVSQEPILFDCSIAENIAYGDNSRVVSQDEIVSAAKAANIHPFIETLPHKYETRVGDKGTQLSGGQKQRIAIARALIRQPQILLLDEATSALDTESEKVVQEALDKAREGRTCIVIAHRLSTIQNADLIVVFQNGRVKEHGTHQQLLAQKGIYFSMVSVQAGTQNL

binding [1]: binds
Substance: ABCB4 (ATP-binding cassette subfamily B member 4) (from UniProt P21439 1-1286)

binding [2]: binds
Substance: ABCB4 (pcDNA3-ABCB4) (from UniProt P21439 1-1286)

binding [3]: binds
Substance: RAB10 (from UniProt P61026 1-200)

binding [4]: binds
Substance: RAB10-GFP (pEGFP-RAB10-WT) (from UniProt P61026 1-200)
